Laboratory results taken from article PMC11865472.
Results are given in words; binding and its absence hold for the method and conditions named. Some results given as binding are weak or reduced against the parent protein; the word gives no strength. Sequences can lack the tags named with a protein.

Amino acid sequences for entries named in this document (tags omitted). A change or cut given only in a name is not applied to a line headed by its entry.
UniProt P05111: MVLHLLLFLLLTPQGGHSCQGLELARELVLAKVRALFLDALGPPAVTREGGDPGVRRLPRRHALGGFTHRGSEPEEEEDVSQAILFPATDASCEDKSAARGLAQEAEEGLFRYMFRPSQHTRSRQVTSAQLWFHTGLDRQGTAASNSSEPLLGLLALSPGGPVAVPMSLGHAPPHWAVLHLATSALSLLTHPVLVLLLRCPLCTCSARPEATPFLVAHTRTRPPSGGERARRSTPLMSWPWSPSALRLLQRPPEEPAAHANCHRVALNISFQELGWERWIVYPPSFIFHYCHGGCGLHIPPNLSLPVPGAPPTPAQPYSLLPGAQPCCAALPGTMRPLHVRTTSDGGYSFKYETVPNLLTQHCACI

Target: T1, SNAP-BG, rat betaglycan with an N-terminal SNAP-tag, on HEK293T cells (rat) (UniProt P26342)
T1 sequence (chain, SNAP-tag ligand conjugated to a fluorescent dye (CF567/CF568)): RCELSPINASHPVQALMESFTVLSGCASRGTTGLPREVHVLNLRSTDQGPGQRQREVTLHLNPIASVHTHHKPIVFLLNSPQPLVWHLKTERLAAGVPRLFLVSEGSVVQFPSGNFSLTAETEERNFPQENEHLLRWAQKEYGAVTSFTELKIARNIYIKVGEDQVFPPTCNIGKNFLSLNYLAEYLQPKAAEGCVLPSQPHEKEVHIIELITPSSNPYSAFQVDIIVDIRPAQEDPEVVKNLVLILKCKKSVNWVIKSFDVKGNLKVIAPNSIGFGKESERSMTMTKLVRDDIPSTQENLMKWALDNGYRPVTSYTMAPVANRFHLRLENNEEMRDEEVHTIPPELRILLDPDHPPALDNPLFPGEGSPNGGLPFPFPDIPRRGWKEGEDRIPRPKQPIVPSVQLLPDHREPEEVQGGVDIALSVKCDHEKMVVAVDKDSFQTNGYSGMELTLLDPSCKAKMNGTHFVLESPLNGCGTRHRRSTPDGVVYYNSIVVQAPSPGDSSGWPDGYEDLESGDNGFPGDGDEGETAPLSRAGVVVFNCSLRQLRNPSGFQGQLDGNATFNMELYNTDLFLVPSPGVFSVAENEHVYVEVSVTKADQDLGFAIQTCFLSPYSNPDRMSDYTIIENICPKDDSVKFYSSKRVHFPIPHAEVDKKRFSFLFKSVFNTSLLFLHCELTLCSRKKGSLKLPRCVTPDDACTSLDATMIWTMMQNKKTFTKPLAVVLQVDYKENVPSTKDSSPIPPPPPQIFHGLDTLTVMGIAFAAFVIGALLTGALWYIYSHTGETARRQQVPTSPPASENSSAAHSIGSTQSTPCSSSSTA
Experiment: competition binding assay on cells, confocal microscopy; HEK293T cells stably expressing SNAP-BG; 20 ng/ml fluorescently labeled InhA, after 10 min excess of unlabeled ligand; ratio of SNAP-BG to ligand signal; only the binder purified

Row | binding | Substance
1 | binds | inhibin A (InhA), mature heterodimer, unlabelled (from UniProt P05111 233-366; P08476 311-426) (ligand)
2 | binds | fluorescently labeled inhibin A (CF640R) (from UniProt P05111 233-366; P08476 311-426) (ligand)
